Measured values from PMC7985234.
Results are given in words; binding and its absence hold for the method and conditions named.

Protein sequences, listed by entry. Tags and fused reporters are not part of them. Residues count along the entry.
UniProt P01375, residues 77-233: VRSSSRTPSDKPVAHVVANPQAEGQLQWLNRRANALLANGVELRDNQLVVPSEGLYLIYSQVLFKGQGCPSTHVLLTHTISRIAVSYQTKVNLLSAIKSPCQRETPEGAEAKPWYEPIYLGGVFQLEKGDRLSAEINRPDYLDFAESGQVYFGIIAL
UniProt P02769, residues 25-607: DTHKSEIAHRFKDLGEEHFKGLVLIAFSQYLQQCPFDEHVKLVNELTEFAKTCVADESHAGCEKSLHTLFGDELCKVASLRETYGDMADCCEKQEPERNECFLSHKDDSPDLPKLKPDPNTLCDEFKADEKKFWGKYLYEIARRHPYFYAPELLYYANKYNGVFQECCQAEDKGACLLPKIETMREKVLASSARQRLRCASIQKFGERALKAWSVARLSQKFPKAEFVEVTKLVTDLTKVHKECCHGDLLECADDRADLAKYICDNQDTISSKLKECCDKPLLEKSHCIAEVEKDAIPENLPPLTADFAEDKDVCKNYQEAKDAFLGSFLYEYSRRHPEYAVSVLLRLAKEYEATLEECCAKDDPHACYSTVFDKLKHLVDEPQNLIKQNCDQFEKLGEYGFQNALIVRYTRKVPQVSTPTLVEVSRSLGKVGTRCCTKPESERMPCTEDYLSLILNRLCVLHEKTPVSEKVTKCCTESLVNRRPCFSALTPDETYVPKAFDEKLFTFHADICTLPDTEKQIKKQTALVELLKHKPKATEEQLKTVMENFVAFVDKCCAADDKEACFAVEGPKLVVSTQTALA

Molecular target: Tumor necrosis factor-alpha (TNF-α) antigen (human) (UniProt P01375)
Assay: SPR; plasmonic sensor in Kretschmann configuration with lateral position (Goos-Hänchen) shift read-out; BSA flowed over the TNF-alpha sensing surface at 10^5 times the concentration of the anti-TNF antibody, compared with flowing the monoclonal anti-TNF antibody (Fig. S7); both purified

Bovine Serum Albumin (BSA) (from UniProt P02769 25-607)
binding: no binding (tested: 10^5 times higher than anti-TNF antibody)
